Test [1] deals with T1, GFP-ΔN132-Scc2-1xStrepII (S. cerevisiae) (UniProt Q04002).
T1 sequence: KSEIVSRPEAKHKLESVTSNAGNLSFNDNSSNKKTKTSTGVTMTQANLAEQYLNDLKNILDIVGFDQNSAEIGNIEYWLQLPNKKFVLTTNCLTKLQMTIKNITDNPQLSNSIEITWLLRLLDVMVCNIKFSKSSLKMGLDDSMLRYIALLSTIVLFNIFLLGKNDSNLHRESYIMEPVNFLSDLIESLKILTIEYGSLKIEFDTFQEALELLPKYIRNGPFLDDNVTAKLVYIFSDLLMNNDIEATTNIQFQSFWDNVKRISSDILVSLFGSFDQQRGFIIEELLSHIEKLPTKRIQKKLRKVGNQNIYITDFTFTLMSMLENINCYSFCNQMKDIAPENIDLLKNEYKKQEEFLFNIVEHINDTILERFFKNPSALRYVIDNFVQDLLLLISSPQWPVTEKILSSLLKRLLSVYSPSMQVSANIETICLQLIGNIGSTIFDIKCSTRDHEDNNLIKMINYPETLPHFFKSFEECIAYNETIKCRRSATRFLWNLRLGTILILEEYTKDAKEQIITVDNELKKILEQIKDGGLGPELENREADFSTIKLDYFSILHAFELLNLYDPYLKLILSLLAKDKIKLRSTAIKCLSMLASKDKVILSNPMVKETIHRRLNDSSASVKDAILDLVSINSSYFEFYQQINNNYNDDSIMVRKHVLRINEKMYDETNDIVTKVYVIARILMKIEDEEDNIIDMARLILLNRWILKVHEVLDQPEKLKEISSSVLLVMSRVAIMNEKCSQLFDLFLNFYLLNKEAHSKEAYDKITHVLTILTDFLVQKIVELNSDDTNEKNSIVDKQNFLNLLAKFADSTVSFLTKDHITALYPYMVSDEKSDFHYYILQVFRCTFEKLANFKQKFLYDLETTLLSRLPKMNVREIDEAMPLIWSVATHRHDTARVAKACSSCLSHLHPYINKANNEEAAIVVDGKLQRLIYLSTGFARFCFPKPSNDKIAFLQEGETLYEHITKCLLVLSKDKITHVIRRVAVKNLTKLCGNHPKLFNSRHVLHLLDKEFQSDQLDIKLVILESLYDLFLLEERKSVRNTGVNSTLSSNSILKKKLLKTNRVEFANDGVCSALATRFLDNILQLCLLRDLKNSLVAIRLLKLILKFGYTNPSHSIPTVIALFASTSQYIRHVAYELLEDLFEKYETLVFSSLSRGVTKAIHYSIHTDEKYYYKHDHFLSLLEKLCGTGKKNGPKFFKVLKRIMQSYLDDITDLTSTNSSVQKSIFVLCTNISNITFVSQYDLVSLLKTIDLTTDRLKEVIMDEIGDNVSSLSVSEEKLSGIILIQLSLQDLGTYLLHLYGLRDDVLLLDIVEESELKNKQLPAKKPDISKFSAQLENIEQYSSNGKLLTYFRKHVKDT
The experiment in a line: pull-down.

Sequences of proteins named here, by UniProt entry; tags and fusion partners are left off. A change or cut given only in a name is not applied to a line headed by its entry.
UniProt P32908: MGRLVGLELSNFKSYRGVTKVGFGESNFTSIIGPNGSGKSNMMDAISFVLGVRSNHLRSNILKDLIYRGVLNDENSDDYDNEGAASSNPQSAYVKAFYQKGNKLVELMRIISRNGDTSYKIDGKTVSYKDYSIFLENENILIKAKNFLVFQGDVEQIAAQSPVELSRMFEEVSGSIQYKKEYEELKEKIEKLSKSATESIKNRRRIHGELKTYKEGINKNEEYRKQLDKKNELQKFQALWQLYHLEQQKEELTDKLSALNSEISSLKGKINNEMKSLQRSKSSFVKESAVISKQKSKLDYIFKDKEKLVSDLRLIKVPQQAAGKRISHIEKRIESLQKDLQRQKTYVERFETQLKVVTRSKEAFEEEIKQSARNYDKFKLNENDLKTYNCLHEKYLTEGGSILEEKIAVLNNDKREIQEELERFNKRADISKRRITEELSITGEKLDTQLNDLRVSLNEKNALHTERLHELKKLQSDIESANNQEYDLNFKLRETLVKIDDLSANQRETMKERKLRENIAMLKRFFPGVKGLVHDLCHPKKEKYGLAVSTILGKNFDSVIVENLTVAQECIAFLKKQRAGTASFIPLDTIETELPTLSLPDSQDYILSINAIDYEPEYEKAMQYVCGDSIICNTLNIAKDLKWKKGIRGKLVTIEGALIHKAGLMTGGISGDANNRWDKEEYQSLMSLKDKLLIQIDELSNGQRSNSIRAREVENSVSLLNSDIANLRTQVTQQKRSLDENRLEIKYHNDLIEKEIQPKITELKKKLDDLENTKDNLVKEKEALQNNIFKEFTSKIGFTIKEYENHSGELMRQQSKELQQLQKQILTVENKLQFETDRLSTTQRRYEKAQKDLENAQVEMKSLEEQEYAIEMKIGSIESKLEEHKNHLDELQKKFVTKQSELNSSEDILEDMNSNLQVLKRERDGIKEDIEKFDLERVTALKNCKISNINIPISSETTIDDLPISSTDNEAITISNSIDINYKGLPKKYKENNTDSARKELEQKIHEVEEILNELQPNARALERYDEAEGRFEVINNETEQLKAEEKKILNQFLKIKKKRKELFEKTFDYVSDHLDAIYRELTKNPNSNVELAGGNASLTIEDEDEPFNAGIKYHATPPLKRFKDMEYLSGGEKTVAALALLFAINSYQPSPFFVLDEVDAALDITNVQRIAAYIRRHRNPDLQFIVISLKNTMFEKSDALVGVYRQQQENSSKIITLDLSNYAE
UniProt Q12158: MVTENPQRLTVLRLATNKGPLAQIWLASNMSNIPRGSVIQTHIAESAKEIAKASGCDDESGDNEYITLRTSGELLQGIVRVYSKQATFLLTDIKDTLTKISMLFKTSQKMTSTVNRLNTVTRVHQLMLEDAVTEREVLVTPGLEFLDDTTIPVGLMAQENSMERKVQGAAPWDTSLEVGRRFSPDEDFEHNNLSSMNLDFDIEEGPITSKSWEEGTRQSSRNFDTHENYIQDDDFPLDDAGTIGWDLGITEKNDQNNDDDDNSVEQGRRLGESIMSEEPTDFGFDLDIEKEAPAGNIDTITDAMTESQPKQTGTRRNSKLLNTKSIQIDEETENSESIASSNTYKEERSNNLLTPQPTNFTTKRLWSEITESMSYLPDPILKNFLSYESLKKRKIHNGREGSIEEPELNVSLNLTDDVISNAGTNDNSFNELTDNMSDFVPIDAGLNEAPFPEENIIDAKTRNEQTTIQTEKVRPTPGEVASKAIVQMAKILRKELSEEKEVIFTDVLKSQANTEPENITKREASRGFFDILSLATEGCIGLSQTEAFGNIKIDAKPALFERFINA

Test [2] addresses T2, Scc3-TetR (S. cerevisiae) (UniProt P40541).
T2 sequence: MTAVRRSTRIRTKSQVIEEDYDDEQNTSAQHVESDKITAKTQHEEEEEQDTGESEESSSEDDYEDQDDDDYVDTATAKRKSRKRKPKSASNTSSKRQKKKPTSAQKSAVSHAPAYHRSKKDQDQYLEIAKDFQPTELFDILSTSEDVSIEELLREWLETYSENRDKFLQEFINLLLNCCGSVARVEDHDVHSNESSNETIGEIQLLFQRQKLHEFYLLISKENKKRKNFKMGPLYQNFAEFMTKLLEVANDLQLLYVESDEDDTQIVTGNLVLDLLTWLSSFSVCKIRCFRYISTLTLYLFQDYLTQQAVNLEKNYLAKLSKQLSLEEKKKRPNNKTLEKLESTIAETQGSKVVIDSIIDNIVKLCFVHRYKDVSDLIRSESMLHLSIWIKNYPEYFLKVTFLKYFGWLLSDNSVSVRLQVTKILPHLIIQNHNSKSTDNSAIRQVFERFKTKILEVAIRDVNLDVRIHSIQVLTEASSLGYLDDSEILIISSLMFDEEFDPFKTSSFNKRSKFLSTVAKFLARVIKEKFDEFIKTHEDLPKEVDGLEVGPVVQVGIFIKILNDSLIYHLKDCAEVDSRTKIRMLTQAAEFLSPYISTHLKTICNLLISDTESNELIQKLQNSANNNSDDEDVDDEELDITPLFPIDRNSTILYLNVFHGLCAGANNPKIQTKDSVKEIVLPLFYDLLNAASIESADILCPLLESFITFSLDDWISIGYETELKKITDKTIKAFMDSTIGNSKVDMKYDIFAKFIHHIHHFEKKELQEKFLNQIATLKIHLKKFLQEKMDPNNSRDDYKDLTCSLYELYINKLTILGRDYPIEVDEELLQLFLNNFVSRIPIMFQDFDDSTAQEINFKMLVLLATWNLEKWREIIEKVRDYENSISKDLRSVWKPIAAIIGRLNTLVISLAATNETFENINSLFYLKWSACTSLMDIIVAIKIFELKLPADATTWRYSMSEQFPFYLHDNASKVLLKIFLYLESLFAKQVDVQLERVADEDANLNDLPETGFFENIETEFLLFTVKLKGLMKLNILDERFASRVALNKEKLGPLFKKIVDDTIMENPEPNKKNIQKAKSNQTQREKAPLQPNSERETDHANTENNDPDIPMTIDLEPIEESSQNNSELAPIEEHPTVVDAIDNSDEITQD
The experiment in a line: tethering to Tet operators, read by calibrated ChIP-qPCR.

Results are given in words; binding and its absence hold for the method and conditions named. Some entries that bind do so weakly or less than the wild type. Tags and fused reporters may be left off the sequences shown.

For “cohesin tetramer containing scc1Δ152-256 (from UniProt P32908;P47037;Q12158;P40541) (complex)”, the binding entry in test [1] is reported as “binds”.

Turning to “cohesin tetramer (Smc1, Smc3, Scc1, Scc3) (from UniProt P32908;P47037;Q12158;P40541) (complex)”, in test [1], the binding result was “binds”.

B1: PK6-tagged Smc3 (protein, UniProt P47037 1-1230)
chain: MYIKRVIIKGFKTYRNETIIDNFSPHQNVIIGSNGSGKSNFFAAIRFVLSDDYSNLKREERQGLIHQGSGGSVMSASVEIVFHDPDHSMILPSGVLSRGDDEVTIRRTVGLKKDDYQLNDRNVTKGDIVRMLETAGFSMNNPYNIVPQGKIVALTNAKDKERLQLLEDVVGAKSFEVKLKASLKKMEETEQKKIQINKEMGELNSKLSEMEQERKELEKYNELERNRKIYQFTLYDRELNEVINQMERLDGDYNNTVYSSEQYIQELDKREDMIDQVSKKLSSIEASLKIKNATDLQQAKLRESEISQKLTNVNVKIKDVQQQIESNEEQRNLDSATLKEIKSIIEQRKQKLSKILPRYQELTKEEAMYKLQLASLQQKQRDLILKKGEYARFKSKDERDTWIHSEIEELKSSIQNLNELESQLQMDRTSLRKQYSAIDEEIEELIDSINGPDTKGQLEDFDSELIHLKQKLSESLDTRKELWRKEQKLQTVLETLLSDVNQNQRNVNETMSRSLANGIINVKEITEKLKISPESVFGTLGELIKVNDKYKTCAEVIGGNSLFHIVVDTEETATLIMNELYRMKGGRVTFIPLNRLSLDSDVKFPSNTTTQIQFTPLIKKIKYEPRFEKAVKHVFGKTIVVKDLGQGLKLAKKHKLNAITLDGDRADKRGVLTGGYLDQHKRTRLESLKNLNESRSQHKKILEELDFVRNELNDIDTKIDQVNGNIRKVSNDRESVLTNIEVYRTSLNTKKNEKLILEESLNAIILKLEKLNTNRTFAQEKLNTFENDLLQEFDSELSKEEKERLESLTKEISAAHNKLNITSDALEGITTTIDSLNAELESKLIPQENDLESKMSEVGDAFIFGLQDELKELQLEKESVEKQHENAVLELGTVQREIESLIAEETNNKKLLEKANNQQRLLLKKLDNFQKSVEKTMIKKTTLVTRREELQQRIREIGLLPEDALVNDFSDITSDQLLQRLNDMNTEISGLKNVNKRAFENFKKFNERRKDLAERASELDESKDSIQDLIVKLKQQKVNAVDSTFQKVSENFEAVFERLVPRGTAKLIIHRKNDNANDHDESIDVDMDAESNESQNGKDSEIMYTGVSISVSFNSKQNEQLHVEQLSGGQKTVCAIALILAIQMVDPASFYLFDEIDAALDKQYRTAVATLLKELSKNAQFICTTFRTDMLQVADKFFRVKYENKISTVIEVNREEAIGFIRGSNKFAEV
Consider B1, for which, in test [2], the binding result is given as “binds”.

B2: PK6-tagged Smc3E1155Q (protein, UniProt P47037 1-1230)
chain: MYIKRVIIKGFKTYRNETIIDNFSPHQNVIIGSNGSGKSNFFAAIRFVLSDDYSNLKREERQGLIHQGSGGSVMSASVEIVFHDPDHSMILPSGVLSRGDDEVTIRRTVGLKKDDYQLNDRNVTKGDIVRMLETAGFSMNNPYNIVPQGKIVALTNAKDKERLQLLEDVVGAKSFEVKLKASLKKMEETEQKKIQINKEMGELNSKLSEMEQERKELEKYNELERNRKIYQFTLYDRELNEVINQMERLDGDYNNTVYSSEQYIQELDKREDMIDQVSKKLSSIEASLKIKNATDLQQAKLRESEISQKLTNVNVKIKDVQQQIESNEEQRNLDSATLKEIKSIIEQRKQKLSKILPRYQELTKEEAMYKLQLASLQQKQRDLILKKGEYARFKSKDERDTWIHSEIEELKSSIQNLNELESQLQMDRTSLRKQYSAIDEEIEELIDSINGPDTKGQLEDFDSELIHLKQKLSESLDTRKELWRKEQKLQTVLETLLSDVNQNQRNVNETMSRSLANGIINVKEITEKLKISPESVFGTLGELIKVNDKYKTCAEVIGGNSLFHIVVDTEETATLIMNELYRMKGGRVTFIPLNRLSLDSDVKFPSNTTTQIQFTPLIKKIKYEPRFEKAVKHVFGKTIVVKDLGQGLKLAKKHKLNAITLDGDRADKRGVLTGGYLDQHKRTRLESLKNLNESRSQHKKILEELDFVRNELNDIDTKIDQVNGNIRKVSNDRESVLTNIEVYRTSLNTKKNEKLILEESLNAIILKLEKLNTNRTFAQEKLNTFENDLLQEFDSELSKEEKERLESLTKEISAAHNKLNITSDALEGITTTIDSLNAELESKLIPQENDLESKMSEVGDAFIFGLQDELKELQLEKESVEKQHENAVLELGTVQREIESLIAEETNNKKLLEKANNQQRLLLKKLDNFQKSVEKTMIKKTTLVTRREELQQRIREIGLLPEDALVNDFSDITSDQLLQRLNDMNTEISGLKNVNKRAFENFKKFNERRKDLAERASELDESKDSIQDLIVKLKQQKVNAVDSTFQKVSENFEAVFERLVPRGTAKLIIHRKNDNANDHDESIDVDMDAESNESQNGKDSEIMYTGVSISVSFNSKQNEQLHVEQLSGGQKTVCAIALILAIQMVDPASFYLFDQIDAALDKQYRTAVATLLKELSKNAQFICTTFRTDMLQVADKFFRVKYENKISTVIEVNREEAIGFIRGSNKFAEV
With B2, in test [2], the binding entry is recorded as “binds”.

B3: PK6-tagged Smc3K38I (protein, UniProt P47037 1-1230)
chain: MYIKRVIIKGFKTYRNETIIDNFSPHQNVIIGSNGSGISNFFAAIRFVLSDDYSNLKREERQGLIHQGSGGSVMSASVEIVFHDPDHSMILPSGVLSRGDDEVTIRRTVGLKKDDYQLNDRNVTKGDIVRMLETAGFSMNNPYNIVPQGKIVALTNAKDKERLQLLEDVVGAKSFEVKLKASLKKMEETEQKKIQINKEMGELNSKLSEMEQERKELEKYNELERNRKIYQFTLYDRELNEVINQMERLDGDYNNTVYSSEQYIQELDKREDMIDQVSKKLSSIEASLKIKNATDLQQAKLRESEISQKLTNVNVKIKDVQQQIESNEEQRNLDSATLKEIKSIIEQRKQKLSKILPRYQELTKEEAMYKLQLASLQQKQRDLILKKGEYARFKSKDERDTWIHSEIEELKSSIQNLNELESQLQMDRTSLRKQYSAIDEEIEELIDSINGPDTKGQLEDFDSELIHLKQKLSESLDTRKELWRKEQKLQTVLETLLSDVNQNQRNVNETMSRSLANGIINVKEITEKLKISPESVFGTLGELIKVNDKYKTCAEVIGGNSLFHIVVDTEETATLIMNELYRMKGGRVTFIPLNRLSLDSDVKFPSNTTTQIQFTPLIKKIKYEPRFEKAVKHVFGKTIVVKDLGQGLKLAKKHKLNAITLDGDRADKRGVLTGGYLDQHKRTRLESLKNLNESRSQHKKILEELDFVRNELNDIDTKIDQVNGNIRKVSNDRESVLTNIEVYRTSLNTKKNEKLILEESLNAIILKLEKLNTNRTFAQEKLNTFENDLLQEFDSELSKEEKERLESLTKEISAAHNKLNITSDALEGITTTIDSLNAELESKLIPQENDLESKMSEVGDAFIFGLQDELKELQLEKESVEKQHENAVLELGTVQREIESLIAEETNNKKLLEKANNQQRLLLKKLDNFQKSVEKTMIKKTTLVTRREELQQRIREIGLLPEDALVNDFSDITSDQLLQRLNDMNTEISGLKNVNKRAFENFKKFNERRKDLAERASELDESKDSIQDLIVKLKQQKVNAVDSTFQKVSENFEAVFERLVPRGTAKLIIHRKNDNANDHDESIDVDMDAESNESQNGKDSEIMYTGVSISVSFNSKQNEQLHVEQLSGGQKTVCAIALILAIQMVDPASFYLFDEIDAALDKQYRTAVATLLKELSKNAQFICTTFRTDMLQVADKFFRVKYENKISTVIEVNREEAIGFIRGSNKFAEV
For the molecule B3, in test [2], the binding entry is recorded as “binds”.

These data come from paper doi:10.1101/205914.
